The record followed here is article PMC7648763.

Chains of the proteins cited; added tags and fusions are not shown.
UniProt O08586: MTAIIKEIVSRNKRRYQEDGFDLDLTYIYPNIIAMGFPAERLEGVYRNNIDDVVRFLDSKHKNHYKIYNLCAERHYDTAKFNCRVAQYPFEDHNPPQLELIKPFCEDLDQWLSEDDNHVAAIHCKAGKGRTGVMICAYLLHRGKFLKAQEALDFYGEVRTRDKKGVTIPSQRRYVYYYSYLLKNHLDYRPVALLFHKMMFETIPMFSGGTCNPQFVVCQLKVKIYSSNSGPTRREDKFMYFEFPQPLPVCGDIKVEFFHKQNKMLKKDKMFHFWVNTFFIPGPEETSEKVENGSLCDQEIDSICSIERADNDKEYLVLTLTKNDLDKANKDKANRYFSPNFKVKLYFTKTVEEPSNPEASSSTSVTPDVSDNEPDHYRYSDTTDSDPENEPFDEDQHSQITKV
UniProt P26369: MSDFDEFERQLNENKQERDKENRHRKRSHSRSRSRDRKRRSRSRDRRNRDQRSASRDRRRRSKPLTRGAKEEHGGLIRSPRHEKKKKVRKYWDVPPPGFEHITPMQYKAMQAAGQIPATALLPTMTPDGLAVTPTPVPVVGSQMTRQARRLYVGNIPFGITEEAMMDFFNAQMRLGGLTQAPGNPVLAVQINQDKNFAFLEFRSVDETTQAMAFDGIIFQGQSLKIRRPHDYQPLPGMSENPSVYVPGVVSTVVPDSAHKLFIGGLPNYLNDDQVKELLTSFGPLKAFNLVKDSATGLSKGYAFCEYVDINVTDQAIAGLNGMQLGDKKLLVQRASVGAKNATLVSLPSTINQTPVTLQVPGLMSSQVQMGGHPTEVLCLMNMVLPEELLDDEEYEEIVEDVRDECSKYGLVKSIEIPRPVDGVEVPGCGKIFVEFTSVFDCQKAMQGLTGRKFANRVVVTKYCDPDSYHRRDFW

No constants are given. Whether binding was seen depends on the method and setting. Binding seen in cells or lysates may run through a third protein. Some results given as binding are weak or reduced against the parent protein; the word gives no strength.

The target of this assay is Pten (wild type) (mouse (endogenous in cortex)) (UniProt O08586). The assay can be described thus: co-IP; co-IP of Pten and U2af2 with nuclear/cytoplasmic fractionation; nuclear fractions of cortical lysates from wild-type, heterozygous and homozygous Pten m3m4 mice; Western blot. In general terms: A western blot detects proteins with antibodies after separation by electrophoresis.

As to U2af2 (from UniProt P26369 1-475), the binding entry is “binds”.
